From US9695173B2, “Pharmaceutical compositions for the treatment of capillary arteriopathy” (SINOXA PHARMA GMBH, priority 2006, dated 2017)
At least one compound was matched to its structure with a doubt left.

How the values were obtained:
[1] = system: Human pulmonary smooth muscle cells; experiment: Antiproliferative action: [3H]thymidine incorporation in serotonin-stimulated smooth muscle cells; assay type: cell-based; conditions: 10 μmol/l active agent preincubation; serotonin 10^-8 mol/l; [3H]thymidine 24 hours
Col1 A2 = experiment: Expression of Col1 A2 in smooth muscle cells of pulmonary arteries (real-time PCR, Col1A2/GAPDH); assay type: cell-based, human; conditions: terguride 100 nmol/L, with or without serotonin 100 nmol/L, 48 hours; more pronounced in the presence of serotonin

CCN(CC)C(=O)N[C@H]1C[C@@H]2c3cccc4[nH]cc(c34)C[C@H]2N(C)C1 [Terguride, (+)-1,1-diethyl-3-(6-methyl-8α-ergolinyl)-urea]
Serotonin-induced proliferation of smooth muscle cells (FIG. 1) [1]: significantly reduced | Expression of Col1 A2 (FIG. 4) (Col1 A2): inhibited
